Source: patent US11717569B2, “Tolerogenic synthetic nanocarriers” (Selecta Biosciences, Inc., priority 2011, dated 2023)
For at least one compound, name, drawing or mass did not settle the structure.

Tests used:
[1] = tested on: Treg cells (CD4+CD25highFoxP3+); assay: Antigen-specific tolerogenic dendritic cells (tDC) activity on Treg cell development; assay type: cell-based, OTII mice
Procedure: The assay included the use of OTII mice which have a transgenic T cell receptor specific for an immune-dominant ovalbumin peptide (323-339). In order to create antigen-specific tDCs, CD11c^+ splenocytes were isolated, and the ovalbumin peptide (323-339) added in vitro at 1 μg/ml or no antigen. Soluble or nanocarrier-encapsulated rapamycin was then added to the DCs for 2 hours which were then washed extensively to remove free rapamycin from the culture. Purified responder CD4^+CD25^− cells were isolated from OTII mice and added to tDC at a 10:1 T to DC ratio. The mixture of tDC and OTII T cells were then cultured for 4-5 days, and the frequency of Treg cells (CD4^+CD25highFoxP3^+) were analyzed by flow cytometry as shown in FIG. 1. Regions were selected based on isotype controls.
Free rapamycin or synthetic nanocarriers containing rapamycin were combined with free soluble Ovalbumin (323-339) to evaluate induction of tDC (FIG. 2). […] Briefly, antigen specific tDC were obtained by isolating dendritic cells (CD11c^+ splenocytes) and culturing them in combination with the Ovalbumin (323-339) peptide plus soluble or nanocarrier encapsulated rapamycin (Synthetic Nanocarrier #s 13, 14, 15 and 16) for 2 hours followed by extensive washing. […] The mixture of tDC and OTII T cells were then cultured for 4-5 days, and the frequency of Treg cells (CD4^+CD25highFoxP3^+) were analyzed by flow cytometry.

iNKT cells = assay: CD69 activation on liver iNKT cells in vivo; set-up: species or system Mice; conditions: FIG. 6; given with sol aGC; compared to PBS treatment control
Procedure: Mice were designated to groups that received PBS alone, sol aGC+solRAPA, sol aGC+NP RAPA. Mice were injected at 9 am and at 9.30 AM received BrefeldinA i.v. to prevent release of intracellular cytokines produced. At 1 pm, mice were sacrificed and the liver was perfused with PBS and processed to obtain a single cell suspension enriched for lymphocytes. Cells were stained with cell surface markers for iNKT cells (agc-loaded CD1d tetramers) and T cells receptor (TCRb) and activation marker CD69. Cells were acquired on a FacsCanto flow cytometer and analyzed on by FlowJo.

For `CO[C@H]1C[C@@H]2CC[C@@H](C)[C@@](O)(O2)C(=O)C(=O)N2CCCC[C@H]2C(=O)O[C@H]([C@H](C)C[C@@H]2CC[C@@H](O)[C@H](OC)C2)CC(=O)[C@H](C)/C=C(\C)[C@@H](O)[C@@H](OC)C(=O)[C@H](C)C[C@H](C)/C=C/C=C/C=C/1C` [free rapamycin, Rapamycin], the “number of CD4+CD25highFoxP3+ cells” value ([1]; FIG. 1, DCs treated with free rapamycin and free Ovalbumin (323-339), flow cytometry) was “increase”, the “frequency of Treg cells (CD4+CD25highFoxP3+)” value ([1]; FIG. 2, combined with free soluble Ovalbumin (323-339), DC treated 2 hours, tDC + OTII T cells cultured 4-5 days) was “dose dependent increase” and the “surface levels of CD69 on iNKT cells” value (iNKT cells) was “significant decrease”.
